From PubChem BioAssay AID248 (DTP/NCI, 2004)
The list does not hold the whole screen: it gathers tests that were run many times, whatever their T/C, doses with no T/C, and many T/C values between a quarter and a half above the control. Other doses and runs of a compound stand elsewhere. T/C: endpoint of the treated group in % of that of the vehicle group. Some entries give survivors of the animals treated and no T/C: the source holds a T/C of zero for them, seemingly a mark for toxic or unscored doses. Some survivor counts are full or nearly so, which does not show that the dose was tolerated: survival well below the control is almost never listed, so the zero probably covers shortened survival too. Survivors were counted at the toxicity check, usually on the fifth day, unless a day is given; later deaths do not show. Schedule codes are those of the source, read here as Q, the interval in days (D) or hours (H), X, the number of doses. Some schedule codes hold Z or #, which are not explained here. For survival time, this PubChem deposit counts one and a half times the control or more as active, and values a quarter to a half above the control carry no call in these data; other NCI protocols may use other cut-offs. Some T/C values are followed by the survivors on the day toxicity was checked, most often the fifth; without a count, all were alive then.

Tested on: L1210 leukemia ip in BDF1 mice, survival T/C
Experiment: NCI In Vivo Anticancer Drug Screen. Data for tumor model L1210 Leukemia (intraperitoneal) in B6D2F1 (BDF1) mice
Conditions: T/C endpoint: mean survival time, higher T/C = longer survival
[1] = dose: 200.0 mg/kg/injection, schedule: Q01DX009 (ip), vehicle: saline
[2] = dose: 400.0 mg/kg/injection, schedule: Q01DX001 (ip), vehicle: saline
[3] = dose: 100.0 mg/kg/injection, schedule: Q01DX001 (ip), vehicle: saline
[4] = dose: 200.0 mg/kg/injection, schedule: Q01DX001 (ip), vehicle: saline
[5] = dose: 200.0 mg/kg/injection, schedule: Q04DX003 (ip), vehicle: Klucel (hydroxypropylcellulose) (HPC)
[6] = dose: 400.0 mg/kg/injection, schedule: Q04DX003 (ip), vehicle: Klucel (hydroxypropylcellulose) (HPC)
[7] = dose: 50.0 mg/kg/injection, schedule: Q01DX Z (ip), vehicle: methylcellulose (MC)

For C1OC1CN1CCN(CC2CO2)CC1 (configuration not stated), the T/C (dose: 2.7 mg/kg/injection, schedule: Q01DX009 (ip), vehicle: saline) was 135 % of control, the T/C (dose: 4.0 mg/kg/injection, schedule: Q03HX024 (ip), vehicle: saline) was 137 % of control and the T/C (dose: 4.1 mg/kg/injection, schedule: Q01DX009 (ip), vehicle: saline) was 129 % of control. The T/C (dose: 6.25 mg/kg/injection, schedule: Q01DX009 (ip), vehicle: saline) was 131 % of control, the T/C (dose: 7.0 mg/kg/injection, schedule: Q01DX009 (ip), vehicle: saline) was 136 % of control and the T/C (dose: 8.0 mg/kg/injection, schedule: Q01DX009 (ip), vehicle: saline) was 128 % of control. The survivor count (dose: 8.0 mg/kg/injection, schedule: Q03HX024 (ip), vehicle: saline) was 8 of 10, the T/C (dose: 12.5 mg/kg/injection, schedule: Q01DX009 (ip), vehicle: saline) was 148 % of control and the T/C (dose: 16.0 mg/kg/injection, schedule: Q01DX001 (ip), vehicle: saline) was 126 % of control. The T/C (dose: 16.0 mg/kg/injection, schedule: Q01DX009 (ip), vehicle: saline) was 144 % of control, the T/C (dose: 16.0 mg/kg/injection, schedule: Q01DX009 (oral), vehicle: saline) was 127 % of control and the survivor count (dose: 16.0 mg/kg/injection, schedule: Q03HX008 (ip), vehicle: saline) was 1 of 10. The survivor count (dose: 16.0 mg/kg/injection, schedule: Q03HX016 (ip), vehicle: saline) was 0 of 10, the survivor count (dose: 16.0 mg/kg/injection, schedule: Q03HX024 (ip), vehicle: saline) was 1 of 10 and the T/C (dose: 16.0 mg/kg/injection, schedule: Q04DX003 (ip), vehicle: saline) was 133 % of control. For the same molecule, the T/C (dose: 16.0 mg/kg/injection, schedule: Q08DX002 (ip), vehicle: saline) was 127 % of control, the T/C (dose: 32.0 mg/kg/injection, schedule: Q01DX001 (ip), vehicle: saline) was 131 % of control and the T/C (dose: 32.0 mg/kg/injection, schedule: Q01DX009 (sc), vehicle: saline) was 130 % of control. The survivor count (dose: 32.0 mg/kg/injection, schedule: Q03HX008 (ip), vehicle: saline) was 1 of 10, the survivor count (dose: 32.0 mg/kg/injection, schedule: Q03HX024 (ip), vehicle: saline) was 0 of 10 and the T/C (dose: 32.0 mg/kg/injection, schedule: Q08DX002 (ip), vehicle: saline) was 146 % of control. For the same molecule, the T/C (dose: 37.5 mg/kg/injection, schedule: Q01DX009 (ip), vehicle: saline) was 140 % of control, the survivor count (dose: 50.0 mg/kg/injection, schedule: Q01DX009 (ip), vehicle: saline) was 6 of 6 and the survivor count (dose: 64.0 mg/kg/injection, schedule: Q01DX001 (ip), vehicle: saline) was 4 of 10. The survivor count (dose: 64.0 mg/kg/injection, schedule: Q01DX009 (ip), vehicle: saline) was 3 of 10, the survivor count (dose: 64.0 mg/kg/injection, schedule: Q04DX003 (ip), vehicle: saline) was 8 of 10 and the survivor count (dose: 64.0 mg/kg/injection, schedule: Q08DX002 (ip), vehicle: saline) was 4 of 10. For the same molecule, the survivor count (dose: 100.0 mg/kg/injection, schedule: Q01DX009 (ip), vehicle: saline) was 4 of 6, the survivor count (dose: 128.0 mg/kg/injection, schedule: Q01DX001 (ip), vehicle: saline) was 2 of 10 and the T/C (dose: 128.0 mg/kg/injection, schedule: Q01DX001 (oral), vehicle: saline) was 139 % of control [9 of 10 alive]. For the same molecule, the survivor count (dose: 128.0 mg/kg/injection, schedule: Q01DX009 (ip), vehicle: saline) was 1 of 10, the survivor count (dose: 128.0 mg/kg/injection, schedule: Q01DX009 (oral), vehicle: saline) was 9 of 10 and the survivor count (dose: 128.0 mg/kg/injection, schedule: Q01DX009 (sc), vehicle: saline) was 9 of 10. For the same molecule, the survivor count (dose: 128.0 mg/kg/injection, schedule: Q04DX003 (ip), vehicle: saline) was 3 of 10, the survivor count (dose: 128.0 mg/kg/injection, schedule: Q08DX002 (ip), vehicle: saline) was 0 of 10 and the survivor count [1] was 2 of 6. The survivor count (dose: 256.0 mg/kg/injection, schedule: Q01DX001 (ip), vehicle: saline) was 2 of 10, the survivor count (dose: 256.0 mg/kg/injection, schedule: Q01DX001 (oral), vehicle: saline) was 0 of 10 and the survivor count (dose: 256.0 mg/kg/injection, schedule: Q04DX003 (ip), vehicle: saline) was 1 of 10. The survivor count (dose: 270.0 mg/kg/injection, schedule: Q01DX001 (ip), vehicle: saline) was 2 of 6, the survivor count [2] was 4 of 6 and the survivor count (dose: 800.0 mg/kg/injection, schedule: Q01DX001 (ip), vehicle: saline) was 0 of 6.

With C=C(C)CN the survivor count [1] was 3 of 6 and the survivor count (dose: 400.0 mg/kg/injection, schedule: Q04DX003 (ip), vehicle: saline) was 0 of 6.

With S=C(N/N=C/c1ccc(Cl)cc1Cl)Nc1cccc2cccnc12 the survivor count (dose: 50.0 mg/kg/injection, schedule: Q01DX001 (ip), vehicle: saline) was 4 of 4, the survivor count [3] was 4 of 4 and the survivor count [4] was 4 of 4. For the same molecule, the survivor count [2] was 4 of 4.

In the case of Cc1c2oc3c(C)ccc(C(=O)NC4C(=O)NC(C(C)C)C(=O)N5CC(Cl)CC5C(=O)N(C)CC(=O)N(C)C(C(C)C)C(=O)OC4C)c3nc-2c(C(=O)NC2C(=O)NC(C(C)C)C(=O)N3CC(Cl)CC3C(=O)N(C)CC(=O)N(C)C(C(C)C)C(=O)OC2C)c(N)c1=O (configuration not stated), the T/C (dose: 400.0 micrograms/kg/injection, schedule: Q01DX009 (ip), vehicle: saline + alcohol) is reported as 130 % of control, the T/C (dose: 1200.0 micrograms/kg/injection, schedule: Q01DX009 (ip), vehicle: saline + alcohol) is reported as 126 % of control and the T/C (dose: 1200.0 micrograms/kg/injection, schedule: Q04DX003 (ip), vehicle: saline + alcohol) is reported as 130 % of control. For the same molecule, the T/C (dose: 1600.0 micrograms/kg/injection, schedule: Q04DX003 (ip), vehicle: saline + alcohol) was 132 % of control, the T/C (dose: 2400.0 micrograms/kg/injection, schedule: Q04DX003 (ip), vehicle: saline + alcohol) was 140 % of control [7 of 8 alive] and the T/C (dose: 3200.0 micrograms/kg/injection, schedule: Q04DX003 (ip), vehicle: saline + alcohol) was 146 % of control.

CO[C@@H]([CH2][Hg][S]C#N)[C@@H]([CH2][Hg][S]C#N)OC was tested, and the survivor count (dose: 6.25 mg/kg/injection, schedule: Q04DX003 (ip), vehicle: saline sonified) was 6 of 6, the survivor count (dose: 100.0 mg/kg/injection, schedule: Q04DX003 (ip), vehicle: Klucel (hydroxypropylcellulose) (HPC)) was 0 of 6 and the survivor count [5] was 0 of 6. The survivor count [6] was 0 of 6.

With S=c1nc[nH]c2c1ncn2C1CCCO1 (configuration not stated) the T/C (dose: 22.2 mg/kg/injection, schedule: Q01DX Z (ip), vehicle: methylcellulose (MC)) was 129 % of control, the T/C (dose: 33.3 mg/kg/injection, schedule: Q01DX Z (ip), vehicle: methylcellulose (MC)) was 134 % of control and the T/C [7] was 131 % of control.

With CC(=O)N(C=C(C#N)C#N)c1ccccc1 the survivor count (dose: 400.0 mg/kg/injection, schedule: Q01DX001 (ip), vehicle: Klucel (hydroxypropylcellulose) (HPC)) was 0 of 6.

With CCc1c(N)nc(N)nc1Nc1ccc(C)cc1 the survivor count (dose: 25.0 mg/kg/injection, schedule: Q01DX Z (ip), vehicle: methylcellulose (MC)) was 6 of 6, the survivor count [7] was 6 of 6 and the survivor count (dose: 100.0 mg/kg/injection, schedule: Q01DX Z (ip), vehicle: methylcellulose (MC)) was 6 of 6. For the same molecule, the survivor count (dose: 200.0 mg/kg/injection, schedule: Q01DX Z (ip), vehicle: methylcellulose (MC)) was 2 of 6.

COc1cc(C(=O)CO)cc(OC)c1OC(C)=O was tested, and the survivor count [3] was 4 of 4, the survivor count [4] was 4 of 4 and the survivor count [2] was 4 of 4.

COc1ccc(OC(=O)Nc2ccccc2C)cc1 was tested, and the T/C (dose: 200.0 mg/kg/injection, schedule: Q04DX002 (ip), vehicle: Klucel (hydroxypropylcellulose) (HPC)) was 134 % of control.

In the case of CC(Br)C(=O)c1cccc2ccccc12 (configuration not stated), the survivor count [5] is reported as 6 of 6 and the survivor count [6] is reported as 6 of 6.
